# Results of single-concentration screens

By UniProt entry, the sequences of proteins in these tests, tags left out. Residues count along the entry.
UniProt P9WNZ1, whole entry: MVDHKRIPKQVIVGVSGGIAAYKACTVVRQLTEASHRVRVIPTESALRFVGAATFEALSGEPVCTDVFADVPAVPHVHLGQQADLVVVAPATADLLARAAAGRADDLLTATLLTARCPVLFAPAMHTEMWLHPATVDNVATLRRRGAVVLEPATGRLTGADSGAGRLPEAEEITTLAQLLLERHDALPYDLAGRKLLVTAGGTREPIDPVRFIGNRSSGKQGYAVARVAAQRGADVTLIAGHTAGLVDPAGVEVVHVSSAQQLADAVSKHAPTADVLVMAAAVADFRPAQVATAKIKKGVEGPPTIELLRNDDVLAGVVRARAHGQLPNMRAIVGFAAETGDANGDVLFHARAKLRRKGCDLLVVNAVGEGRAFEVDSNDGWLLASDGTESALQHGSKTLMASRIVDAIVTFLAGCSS
UniProt I6X8D2, whole entry: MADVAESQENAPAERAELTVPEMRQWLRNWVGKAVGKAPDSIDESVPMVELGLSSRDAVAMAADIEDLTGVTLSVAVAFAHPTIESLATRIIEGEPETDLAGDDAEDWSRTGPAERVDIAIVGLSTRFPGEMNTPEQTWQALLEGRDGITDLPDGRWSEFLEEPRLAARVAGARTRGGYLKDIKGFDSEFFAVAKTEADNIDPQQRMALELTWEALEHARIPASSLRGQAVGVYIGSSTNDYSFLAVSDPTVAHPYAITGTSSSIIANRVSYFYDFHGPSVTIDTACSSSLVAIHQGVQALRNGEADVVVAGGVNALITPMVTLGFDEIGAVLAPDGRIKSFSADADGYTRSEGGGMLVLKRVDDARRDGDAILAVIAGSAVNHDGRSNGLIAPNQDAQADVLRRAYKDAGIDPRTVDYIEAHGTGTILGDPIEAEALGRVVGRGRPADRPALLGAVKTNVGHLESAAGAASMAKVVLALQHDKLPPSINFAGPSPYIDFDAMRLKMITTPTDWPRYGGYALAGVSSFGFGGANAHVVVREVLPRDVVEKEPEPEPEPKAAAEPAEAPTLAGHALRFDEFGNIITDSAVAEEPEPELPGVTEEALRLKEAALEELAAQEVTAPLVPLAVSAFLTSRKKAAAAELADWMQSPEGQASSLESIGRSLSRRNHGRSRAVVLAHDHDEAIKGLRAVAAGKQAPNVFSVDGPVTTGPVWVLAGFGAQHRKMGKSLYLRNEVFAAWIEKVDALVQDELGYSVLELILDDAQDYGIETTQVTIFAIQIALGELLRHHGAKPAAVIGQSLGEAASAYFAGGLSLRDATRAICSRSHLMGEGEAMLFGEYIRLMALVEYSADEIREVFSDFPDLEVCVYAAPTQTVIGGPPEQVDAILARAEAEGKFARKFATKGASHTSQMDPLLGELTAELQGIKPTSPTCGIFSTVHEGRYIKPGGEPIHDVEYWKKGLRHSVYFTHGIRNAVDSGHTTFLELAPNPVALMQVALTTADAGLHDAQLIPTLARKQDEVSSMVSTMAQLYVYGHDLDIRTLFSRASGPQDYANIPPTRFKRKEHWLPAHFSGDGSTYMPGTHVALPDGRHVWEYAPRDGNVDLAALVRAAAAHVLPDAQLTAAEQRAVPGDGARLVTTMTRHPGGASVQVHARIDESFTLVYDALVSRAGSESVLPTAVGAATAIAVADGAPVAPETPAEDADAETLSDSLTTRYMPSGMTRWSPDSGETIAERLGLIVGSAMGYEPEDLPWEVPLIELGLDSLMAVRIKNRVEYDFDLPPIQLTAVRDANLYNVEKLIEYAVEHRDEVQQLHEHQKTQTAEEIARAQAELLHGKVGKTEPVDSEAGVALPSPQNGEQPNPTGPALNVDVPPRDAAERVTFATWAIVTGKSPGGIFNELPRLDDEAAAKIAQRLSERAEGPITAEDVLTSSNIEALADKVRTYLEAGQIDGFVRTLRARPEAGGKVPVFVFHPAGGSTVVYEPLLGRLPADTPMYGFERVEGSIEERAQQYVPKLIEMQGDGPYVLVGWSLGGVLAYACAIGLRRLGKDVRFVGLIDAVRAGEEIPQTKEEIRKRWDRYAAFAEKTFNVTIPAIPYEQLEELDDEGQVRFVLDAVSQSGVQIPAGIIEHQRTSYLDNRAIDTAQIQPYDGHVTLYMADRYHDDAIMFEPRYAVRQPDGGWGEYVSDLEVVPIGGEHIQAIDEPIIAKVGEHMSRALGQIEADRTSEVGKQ
UniProt P9WPC5, whole entry: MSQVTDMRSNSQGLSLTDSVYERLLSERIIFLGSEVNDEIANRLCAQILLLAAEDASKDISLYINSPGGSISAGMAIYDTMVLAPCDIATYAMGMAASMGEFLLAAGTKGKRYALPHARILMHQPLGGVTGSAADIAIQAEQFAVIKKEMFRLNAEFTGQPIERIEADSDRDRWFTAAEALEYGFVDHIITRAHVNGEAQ
UniProt P9WPC3, whole entry partner: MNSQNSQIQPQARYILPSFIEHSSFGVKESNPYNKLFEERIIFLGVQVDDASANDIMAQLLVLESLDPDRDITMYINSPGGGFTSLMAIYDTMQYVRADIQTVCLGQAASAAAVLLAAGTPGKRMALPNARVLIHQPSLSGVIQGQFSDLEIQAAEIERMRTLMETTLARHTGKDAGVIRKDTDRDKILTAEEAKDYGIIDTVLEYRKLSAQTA
UniProt A4I591, 1-473: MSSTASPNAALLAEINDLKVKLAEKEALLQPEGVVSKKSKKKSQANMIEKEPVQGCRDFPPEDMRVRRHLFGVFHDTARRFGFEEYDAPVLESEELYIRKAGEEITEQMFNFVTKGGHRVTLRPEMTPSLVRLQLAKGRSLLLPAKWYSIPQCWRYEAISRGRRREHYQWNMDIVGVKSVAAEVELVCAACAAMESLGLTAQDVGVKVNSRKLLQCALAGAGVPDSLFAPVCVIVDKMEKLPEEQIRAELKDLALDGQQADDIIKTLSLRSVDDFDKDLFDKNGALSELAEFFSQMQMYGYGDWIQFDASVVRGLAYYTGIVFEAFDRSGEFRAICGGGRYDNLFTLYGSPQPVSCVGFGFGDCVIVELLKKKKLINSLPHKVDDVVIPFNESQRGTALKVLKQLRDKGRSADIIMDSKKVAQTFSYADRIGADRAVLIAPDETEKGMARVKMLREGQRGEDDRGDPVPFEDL
UniProt P9WFT3, whole entry: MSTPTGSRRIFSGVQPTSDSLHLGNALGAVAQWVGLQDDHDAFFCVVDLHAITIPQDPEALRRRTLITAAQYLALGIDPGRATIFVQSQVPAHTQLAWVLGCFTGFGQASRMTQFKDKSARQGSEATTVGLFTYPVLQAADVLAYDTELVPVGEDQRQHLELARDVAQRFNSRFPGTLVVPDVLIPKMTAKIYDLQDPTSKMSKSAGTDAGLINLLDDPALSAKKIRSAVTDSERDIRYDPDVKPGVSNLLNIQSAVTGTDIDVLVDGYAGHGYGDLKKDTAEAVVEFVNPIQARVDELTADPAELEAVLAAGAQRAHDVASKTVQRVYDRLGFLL

CoaBC: 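Coenzyme A biosynthesis protein CoaBC, Mycobacterium tuberculosis (UniProt P9WNZ1). Enzyme assay of CoaBC with a phosphate dye (Biomol Green) read at 650 nm. Concentration: 30 µM. Direction is inferred from only a few compounds that gave an IC50; most scored high, so higher reads as stronger inhibition. Most strong results did not repeat in a second test. About 67,000 compounds were tested under these conditions; 0.06% (about 40) showed 50% or more at least once.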
Pks13 thioesterase: 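Polyketide synthase Pks13, Mycobacterium tuberculosis (UniProt I6X8D2). Enzyme assay of the thioesterase domain of polyketide synthase 13; the read-out is not stated. Compounds at 30 µM. Higher reads as stronger inhibition (inferred from which compounds were picked for retests). Of about 67,000 compounds tested this way, about 300 (0.46%) reached 50% or more in at least one test.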
ClpP1P2: 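Protease assay of ClpP1P2, read by the AMC dye that it sets free. Target: ClpP1P2, Mycobacterium tuberculosis (UniProt P9WPC5 and UniProt P9WPC3). Tested at 50 µM. Direction is inferred from only a few compounds that gave an IC50; most scored high, so higher reads as stronger inhibition. Most other retested compounds had strongly negative values. Size under these conditions: about 69,000 compounds, about 10 of them at 50% or above in at least one test.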
LiHisRS: 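Histidine-tRNA ligase, Leishmania infantum (UniProt A4I591). Enzyme assay of histidyl-tRNA synthetase; the read-out is not stated. Tested at 30 µM. Direction is inferred from retests: higher values go with stronger inhibition. The assay is labelled LdHisRS but filed under L. infantum. About 69,000 compounds were tested under these conditions; 0.6% (about 410) showed 50% or more at least once.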
MtTrpRS: 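Tryptophan-tRNA ligase, Mycobacterium tuberculosis (UniProt P9WFT3). Enzyme assay of tryptophanyl-tRNA synthetase; the read-out is not stated. Compounds at 10 µM. Direction is not recorded; retested compounds ran higher, which suggests that high means inhibition. Size under these conditions: about 65,000 compounds, about 64 of them at 50% or above in at least one test.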

Values are the deposited “Percent Effect”, in %.
The record does not define 0% and 100%; most values in the screen are far below 50% and negative numbers occur (in some assays of this library far below -100).
The compounds are a random part of those screened.
A dash means the value is not listed here; it may have been measured.

SMILES | CoaBC | Pks13 thioesterase | ClpP1P2 | LiHisRS | MtTrpRS
COc1ccc(OCCN(C)c2cc(C)nc(N)n2)cc1 | -15.62% | -24.15% | 2.889% | 10.42% | -3.818%
CC1CCC(N2Cc3nc(N)ncc3C2=O)CC1 (stereo not shown) | -1.617% | -12.27% | 4.633% | 13.79% | 3.756%
CN1[C@@H](C(=O)NCC2CC2)C[C@H]2CN(Cc3cccc(C#N)c3)C[C@H]21 | -5.412% | -11.9% | -0.5726% | 17.43% | -5.307%
Cc1ccc(N2CCCC(NCC(=O)Nc3cc(C)no3)C2)nn1 (stereo not shown) | 0.5222% | -7.512% | 16.9% | 16.22% | -0.4873%
CC(C(=O)N1CCN(CCOc2ccccc2)CC1)n1cncn1 (stereo not shown) | 2.532% | - | 1.611% | 9.091% | -0.8567%
CCOCCCNc1ncc(-c2onc(C)c2C)c(-c2ccco2)n1 | -3.349% | 12.66% | -33.34% | 10.07% | -5.859%
O=C(NCc1ccc2[nH]c(=O)[nH]c2c1)c1ccc(CN2CCCC2)o1 | -4.845% | -3.223% | -17.13% | 4.167% | -1.737%
CN(Cc1ccc(F)cc1C#N)CC(F)(F)F | 2.161% | -6.965% | -2.228% | 6.14% | 1.349%
CNS(=O)(=O)CC(=O)NC(c1cc(C)sc1C)C(C)C (stereo not shown) | -3.738% | -15.9% | -5.091% | 16.81% | 0.5913%
CCOc1ncnc2c1CCN(C(=O)NCc1cccnc1)CC2 | -10.24% | -17.77% | 1.681% | 17.54% | -0.6637%
Cc1ncsc1CN(C)C(=O)CC1CCOc2ccccc21 (stereo not shown) | 5.976% | -13.63% | -4.201% | 16.44% | 1.624%
CCOCCOC(C)C(=O)NCc1cn2cc(Cl)ccc2n1 (stereo not shown) | 12.4% | -11.6% | -10.84% | 15.18% | 6.155%
OCc1cc2ccccc2nc1N1CCCC1 | -7.025% | -20.98% | 1.069% | 5.333% | 0.09671%
CN(C)C(=O)CO[C@H]1CO[C@@]2(CCN(S(C)(=O)=O)C2)C1 | 1.724% | -15.87% | -1.883% | 16% | -6.132%
O=c1c2ccccc2nc2n1C(CSc1ccc(Cl)cc1)CN2 (stereo not shown) | -1.841% | -13.08% | -8.274% | 20.83% | -4.003%
O=C(C[S+]([O-])Cc1csc(C2CCCC2)n1)NC1CCCC1 (stereo not shown) | 9.6% | -12.7% | 0.4868% | 12.82% | -1.521%
CNC(=O)[C@@H]1[C@@H](c2ccccc2)CN2CCN(Cc3cccs3)C[C@H]12 | -0.4843% | -13.48% | -9.2% | 6.122% | -
Cn1cc(CN2CCCC23CCN(C(=O)c2ccccc2)CC3)cn1 | -0.8403% | -10.94% | -7.017% | 3.636% | -3.487%
CNC(=O)[C@@H]1C[C@H](N)CN1S(=O)(=O)c1cc(Cl)c(Cl)s1 | 3.909% | -26.3% | -7.338% | 8.602% | -2.918%
COc1cccc([C@@H]2CCN(Cc3[nH]nc(C)c3Cl)C[C@H]2O)c1 | 3.576% | -46.07% | -4.337% | 18.18% | -0.7417%
Cc1cc(S(=O)(=O)Nc2onc(C)c2C)c(C)s1 | -1.599% | -10.78% | -3.686% | 4.839% | -0.6388%
CCc1nc(C)cc(NC(C)C(=O)Nc2cc(F)ccc2C)n1 (stereo not shown) | 2.941% | -14.67% | -6.034% | 35.56% | 7.284%
CCn1c(C(=O)N2CCN(C(=O)NC(C)C)CC2)cc2ccccc21 | 1.446% | -6.884% | -2.582% | 5.479% | 0.2398%
Cc1ccc(C(=O)N2CCN(Cc3nc(C(C)C)no3)CC2)c(=O)[nH]1 | 9.444% | -8.973% | 0.692% | 6.154% | -4.373%
CSc1ccc(CN(CCO)C(=O)CCc2cccc(F)c2)cc1 | -0.3797% | 19.56% | -23.37% | 6.024% | 1.903%
COc1cccc(CN2CCCC3(CCN(C(=O)N4CCCC4)C3)C2)c1 (stereo not shown) | -0.2353% | -22.47% | 8.294% | 32.11% | -2.156%
COCCN1CCC(C)(c2cc(O)[nH]n2)CC1 | -4.126% | 8.19% | -22.31% | 50% | -3.03%
CC(C)S(=O)(=O)C(C)C(=O)NCc1cccc(N2CCCCC2=O)c1 (stereo not shown) | 13.17% | -6.144% | 4.151% | 6.612% | -0.5696%
COCc1nn(Cc2ccc(Br)s2)c(=O)o1 | -3.137% | -6.343% | -5.539% | 6.024% | -1.836%
O=C(Cc1cnccn1)N1CCC(c2nccn2CC2CC2)CC1 | 4.222% | 14.04% | -10.97% | 10.4% | 2.971%
Cc1ccccc1C(=O)NC[C@@H]1CCN(C(=O)c2cccn2C)C[C@H]1O | 8.273% | -19.61% | 0.2141% | 13.33% | 3.994%
CCC[C@@H]1CN(C(=O)CCc2ccco2)C[C@H]1NS(C)(=O)=O | -2.781% | -22.07% | -0.2566% | -1.613% | 3.857%
COCCN1C[C@H]2CC[C@@H]1CN(C(=O)CCn1cc(Cl)cn1)C2 | 4.183% | -39.86% | 4.85% | 16.46% | 1.852%
CC(=O)c1c[nH]c(C(=O)N2CCN(C(C(N)=O)c3ccccc3)CC2)c1 (stereo not shown) | - | 10.15% | 5.689% | 34.29% | 12.28%
COc1cccc(C(=O)N2CCC3(CCC(=O)N(C(C)C)C3)CC2)c1C | -3.782% | -17.28% | 8.915% | 14.53% | -2.23%
CC(NC(=O)NCC1(c2ccc(Cl)cc2)CC1)c1nncn1C (stereo not shown) | -0.6386% | -19.88% | -16.82% | 8.036% | -3.448%
O=C(COCc1ccccc1)N1CCCC(OCc2cccnc2)C1 (stereo not shown) | 1.788% | -24.58% | -8.612% | -5.195% | 0.8653%
COc1ccc(C(=O)NCCCOC(C)c2ccccc2)c(OC)c1 (stereo not shown) | -0.1318% | -10.63% | -9.986% | -2.74% | -2.205%
CCCn1ncc(CN2C[C@@H]3CCCN3C[C@@H]2Cc2ccccc2)c1C | -2.179% | 21.51% | 4.655% | 20.62% | -
Cc1nnc(N2CCCC(C(=O)c3cccc(Cl)c3)C2)o1 (stereo not shown) | 1.606% | -31.06% | 0.4246% | 10.45% | 2.275%
CCS(=O)(=O)N1CCCC2(CCCC(=O)N2C)C1 (stereo not shown) | 1.781% | -26.46% | -8.082% | 17.48% | -1.859%
CN(C)c1ncc(CN2CCOC(C(=O)Nc3ccccc3)C2)cn1 (stereo not shown) | 14.51% | -22.47% | 9.575% | 8.029% | -3.348%
CCOc1cc(CN(C)CCCC#N)ccc1OC(F)F | 3.299% | -12.38% | -4.215% | -1.176% | 1.097%
CCNc1nc(C)c(C(=O)N2CCN(c3ncccc3C)CC2)s1 | 0.5115% | 0.7714% | -2.381% | 8.197% | -2.677%
CCc1noc(C(C)N2CCOCC2)n1 (stereo not shown) | 5.085% | 23.31% | 4.615% | 14.86% | 2.956%
CCc1nnnn1Cc1csc(N(C)C(C)=O)n1 | -2.67% | 5.838% | 6.389% | 19.05% | -2.736%
O=c1[nH]c(-c2ccc(F)c(F)c2)nc2c1CCNC2 | 10.91% | -23.64% | -2.148% | 9.677% | -4.326%
Cc1ccc(C(=O)NC2CCN(C(C)C)C2)c(=O)[nH]1 (stereo not shown) | 7.767% | -1.498% | 7.814% | 8.235% | -1.968%
CS(=O)(=O)NCC1CCN(Cc2cc3ccccc3[nH]c2=O)C1 (stereo not shown) | 1.709% | -45.05% | -4.383% | 30.77% | -0.07139%
NC(=O)c1cccc(C(=O)N2CCCC(n3ccnc3)C2)c1 (stereo not shown) | 11.4% | 1.872% | -12.93% | 12.5% | -4.993%
COc1cc(F)ccc1CC(=O)N1CC[C@H]2C(=O)NCCO[C@H]2C1 | -5.419% | -29.15% | -5.852% | -18% | -2.535%
CC(=O)N1CCN(c2ccnc3c(F)cc(Br)cc23)CC1 | 6.226% | -11.11% | -2.251% | 22.52% | 1.33%

The last 4 entries again:

| SMILES | CoaBC | Pks13 thioesterase | ClpP1P2 | LiHisRS | MtTrpRS |
|---|---|---|---|---|---|
| `CS(=O)(=O)NCC1CCN(Cc2cc3ccccc3[nH]c2=O)C1` (stereo not shown) | 1.709% | -45.05% | -4.383% | 30.77% | -0.07139% |
| `NC(=O)c1cccc(C(=O)N2CCCC(n3ccnc3)C2)c1` (stereo not shown) | 11.4% | 1.872% | -12.93% | 12.5% | -4.993% |
| `COc1cc(F)ccc1CC(=O)N1CC[C@H]2C(=O)NCCO[C@H]2C1` | -5.419% | -29.15% | -5.852% | -18% | -2.535% |
| `CC(=O)N1CCN(c2ccnc3c(F)cc(Br)cc23)CC1` | 6.226% | -11.11% | -2.251% | 22.52% | 1.33% |

Measurements from “University of Dundee, Small-Polar-MMV Screening Library” (2021), ChEMBL document CHEMBL3988442.